From the supplement of paper PMC10849652 come the findings set out here.

Amino acid sequences for entries named in this document (tags omitted). A change or cut given only in a name is not applied to a line headed by its entry.
UniProt Q7Z7M9: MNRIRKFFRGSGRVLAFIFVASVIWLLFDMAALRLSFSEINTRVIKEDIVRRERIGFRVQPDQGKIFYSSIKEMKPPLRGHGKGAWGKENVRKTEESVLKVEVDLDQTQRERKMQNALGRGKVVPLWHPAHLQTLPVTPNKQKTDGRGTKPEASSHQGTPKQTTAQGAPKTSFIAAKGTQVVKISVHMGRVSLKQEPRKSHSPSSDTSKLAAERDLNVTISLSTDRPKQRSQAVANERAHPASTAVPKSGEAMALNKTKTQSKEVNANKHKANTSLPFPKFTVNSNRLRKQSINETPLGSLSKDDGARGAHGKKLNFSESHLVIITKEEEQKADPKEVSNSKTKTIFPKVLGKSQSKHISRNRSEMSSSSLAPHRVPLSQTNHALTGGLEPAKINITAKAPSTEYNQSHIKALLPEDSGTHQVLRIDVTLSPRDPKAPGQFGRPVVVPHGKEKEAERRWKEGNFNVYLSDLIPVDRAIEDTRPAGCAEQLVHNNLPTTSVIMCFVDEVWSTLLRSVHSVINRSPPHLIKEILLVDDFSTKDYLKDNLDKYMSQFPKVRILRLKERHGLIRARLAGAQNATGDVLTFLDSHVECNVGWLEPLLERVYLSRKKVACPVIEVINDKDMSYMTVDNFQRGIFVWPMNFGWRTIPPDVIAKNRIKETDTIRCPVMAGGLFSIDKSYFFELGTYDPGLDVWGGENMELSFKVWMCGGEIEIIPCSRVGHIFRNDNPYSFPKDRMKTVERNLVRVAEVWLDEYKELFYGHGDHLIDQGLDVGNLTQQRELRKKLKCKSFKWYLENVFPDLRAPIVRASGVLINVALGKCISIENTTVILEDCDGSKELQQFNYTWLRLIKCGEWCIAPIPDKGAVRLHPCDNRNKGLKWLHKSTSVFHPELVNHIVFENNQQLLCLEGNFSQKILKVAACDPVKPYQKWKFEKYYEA
UniProt P02792: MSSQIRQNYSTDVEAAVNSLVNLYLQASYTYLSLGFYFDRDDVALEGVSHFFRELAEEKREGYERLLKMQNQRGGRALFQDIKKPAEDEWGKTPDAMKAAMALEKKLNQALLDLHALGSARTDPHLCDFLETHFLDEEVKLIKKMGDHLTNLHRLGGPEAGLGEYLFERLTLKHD
UniProt Q14376: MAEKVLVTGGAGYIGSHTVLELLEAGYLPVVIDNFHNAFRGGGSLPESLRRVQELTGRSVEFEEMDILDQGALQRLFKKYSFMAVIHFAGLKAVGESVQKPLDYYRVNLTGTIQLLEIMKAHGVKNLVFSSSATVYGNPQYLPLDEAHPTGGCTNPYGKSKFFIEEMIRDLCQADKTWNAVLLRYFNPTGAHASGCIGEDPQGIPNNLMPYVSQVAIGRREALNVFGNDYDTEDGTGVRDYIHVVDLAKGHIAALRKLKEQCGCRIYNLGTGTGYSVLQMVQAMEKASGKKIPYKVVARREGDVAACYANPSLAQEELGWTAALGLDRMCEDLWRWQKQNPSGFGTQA
UniProt Q96C23: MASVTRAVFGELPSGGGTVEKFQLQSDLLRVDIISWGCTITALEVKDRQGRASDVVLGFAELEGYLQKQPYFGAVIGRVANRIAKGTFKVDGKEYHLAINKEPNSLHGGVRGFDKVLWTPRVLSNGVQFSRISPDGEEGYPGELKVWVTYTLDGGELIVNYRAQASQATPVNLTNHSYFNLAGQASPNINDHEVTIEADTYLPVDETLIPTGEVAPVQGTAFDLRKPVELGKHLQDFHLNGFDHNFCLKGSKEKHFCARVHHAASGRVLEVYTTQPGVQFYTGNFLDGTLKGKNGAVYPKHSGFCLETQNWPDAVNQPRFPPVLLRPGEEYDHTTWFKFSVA
UniProt O43716: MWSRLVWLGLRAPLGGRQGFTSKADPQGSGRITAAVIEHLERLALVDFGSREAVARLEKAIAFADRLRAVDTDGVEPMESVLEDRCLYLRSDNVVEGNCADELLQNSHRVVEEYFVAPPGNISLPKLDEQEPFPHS
UniProt Q92616, whole entry, looked up: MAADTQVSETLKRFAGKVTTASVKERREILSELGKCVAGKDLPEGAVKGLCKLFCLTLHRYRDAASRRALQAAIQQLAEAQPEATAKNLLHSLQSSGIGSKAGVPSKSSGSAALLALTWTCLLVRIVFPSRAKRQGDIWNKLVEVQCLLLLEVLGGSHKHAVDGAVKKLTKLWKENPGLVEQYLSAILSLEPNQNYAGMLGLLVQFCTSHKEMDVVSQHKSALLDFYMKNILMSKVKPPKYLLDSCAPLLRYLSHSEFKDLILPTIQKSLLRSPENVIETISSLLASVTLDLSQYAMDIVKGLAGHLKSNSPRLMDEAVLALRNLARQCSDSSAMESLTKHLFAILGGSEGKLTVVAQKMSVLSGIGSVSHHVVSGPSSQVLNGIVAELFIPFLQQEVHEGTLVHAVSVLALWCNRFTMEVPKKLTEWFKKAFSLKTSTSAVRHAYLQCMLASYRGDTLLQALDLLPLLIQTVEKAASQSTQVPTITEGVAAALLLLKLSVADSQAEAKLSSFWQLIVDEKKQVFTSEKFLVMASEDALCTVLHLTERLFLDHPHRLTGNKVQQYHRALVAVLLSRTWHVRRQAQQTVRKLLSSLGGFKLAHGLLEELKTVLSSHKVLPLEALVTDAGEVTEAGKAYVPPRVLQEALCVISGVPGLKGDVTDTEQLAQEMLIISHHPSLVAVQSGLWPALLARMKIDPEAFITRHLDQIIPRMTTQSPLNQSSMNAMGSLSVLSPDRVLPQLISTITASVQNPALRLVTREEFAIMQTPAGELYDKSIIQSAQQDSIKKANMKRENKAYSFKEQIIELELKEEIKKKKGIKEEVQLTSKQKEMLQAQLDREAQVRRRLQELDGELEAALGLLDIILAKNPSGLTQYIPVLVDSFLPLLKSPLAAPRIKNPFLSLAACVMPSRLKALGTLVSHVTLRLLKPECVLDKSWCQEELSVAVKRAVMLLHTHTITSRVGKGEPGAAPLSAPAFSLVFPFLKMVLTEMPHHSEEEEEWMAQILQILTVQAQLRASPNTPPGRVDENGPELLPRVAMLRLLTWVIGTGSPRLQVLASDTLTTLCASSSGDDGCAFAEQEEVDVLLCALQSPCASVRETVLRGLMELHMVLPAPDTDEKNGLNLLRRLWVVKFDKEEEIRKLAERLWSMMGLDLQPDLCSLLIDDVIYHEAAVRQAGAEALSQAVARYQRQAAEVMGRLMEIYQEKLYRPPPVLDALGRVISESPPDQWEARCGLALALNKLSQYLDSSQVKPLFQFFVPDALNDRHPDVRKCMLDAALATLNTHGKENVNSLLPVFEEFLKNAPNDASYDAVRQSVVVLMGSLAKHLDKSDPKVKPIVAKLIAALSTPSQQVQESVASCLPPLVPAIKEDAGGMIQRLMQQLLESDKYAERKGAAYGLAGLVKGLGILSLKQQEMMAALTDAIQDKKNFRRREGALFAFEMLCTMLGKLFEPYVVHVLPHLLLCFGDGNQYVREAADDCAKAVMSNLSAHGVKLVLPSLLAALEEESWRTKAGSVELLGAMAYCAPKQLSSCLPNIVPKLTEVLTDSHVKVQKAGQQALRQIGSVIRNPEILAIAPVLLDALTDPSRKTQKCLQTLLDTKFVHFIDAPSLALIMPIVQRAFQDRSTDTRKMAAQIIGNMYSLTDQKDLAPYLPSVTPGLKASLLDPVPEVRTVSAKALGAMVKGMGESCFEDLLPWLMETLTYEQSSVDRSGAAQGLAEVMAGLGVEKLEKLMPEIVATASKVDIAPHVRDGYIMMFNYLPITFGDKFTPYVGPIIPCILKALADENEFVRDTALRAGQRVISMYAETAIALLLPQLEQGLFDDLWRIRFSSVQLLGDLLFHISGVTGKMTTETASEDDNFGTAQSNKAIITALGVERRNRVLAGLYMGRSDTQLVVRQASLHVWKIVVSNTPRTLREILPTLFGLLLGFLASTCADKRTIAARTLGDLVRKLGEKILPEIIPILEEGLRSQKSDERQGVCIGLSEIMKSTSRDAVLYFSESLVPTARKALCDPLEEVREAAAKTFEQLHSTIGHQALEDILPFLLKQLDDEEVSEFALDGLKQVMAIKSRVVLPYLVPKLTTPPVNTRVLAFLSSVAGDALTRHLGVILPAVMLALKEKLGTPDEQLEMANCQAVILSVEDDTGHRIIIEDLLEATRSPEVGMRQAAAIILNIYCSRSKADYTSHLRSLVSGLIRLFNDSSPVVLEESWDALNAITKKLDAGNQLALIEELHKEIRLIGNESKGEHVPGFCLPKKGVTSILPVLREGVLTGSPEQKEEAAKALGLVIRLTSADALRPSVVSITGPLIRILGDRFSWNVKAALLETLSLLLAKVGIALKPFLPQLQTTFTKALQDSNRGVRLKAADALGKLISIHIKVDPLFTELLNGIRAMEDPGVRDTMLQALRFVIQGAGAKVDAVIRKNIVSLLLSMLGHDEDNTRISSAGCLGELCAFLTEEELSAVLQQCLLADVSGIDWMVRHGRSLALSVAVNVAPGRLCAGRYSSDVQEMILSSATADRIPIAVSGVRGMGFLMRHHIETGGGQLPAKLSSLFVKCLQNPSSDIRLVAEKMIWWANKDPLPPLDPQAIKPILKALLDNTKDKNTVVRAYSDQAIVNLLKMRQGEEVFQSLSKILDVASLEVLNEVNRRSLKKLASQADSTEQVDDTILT
UniProt P38435: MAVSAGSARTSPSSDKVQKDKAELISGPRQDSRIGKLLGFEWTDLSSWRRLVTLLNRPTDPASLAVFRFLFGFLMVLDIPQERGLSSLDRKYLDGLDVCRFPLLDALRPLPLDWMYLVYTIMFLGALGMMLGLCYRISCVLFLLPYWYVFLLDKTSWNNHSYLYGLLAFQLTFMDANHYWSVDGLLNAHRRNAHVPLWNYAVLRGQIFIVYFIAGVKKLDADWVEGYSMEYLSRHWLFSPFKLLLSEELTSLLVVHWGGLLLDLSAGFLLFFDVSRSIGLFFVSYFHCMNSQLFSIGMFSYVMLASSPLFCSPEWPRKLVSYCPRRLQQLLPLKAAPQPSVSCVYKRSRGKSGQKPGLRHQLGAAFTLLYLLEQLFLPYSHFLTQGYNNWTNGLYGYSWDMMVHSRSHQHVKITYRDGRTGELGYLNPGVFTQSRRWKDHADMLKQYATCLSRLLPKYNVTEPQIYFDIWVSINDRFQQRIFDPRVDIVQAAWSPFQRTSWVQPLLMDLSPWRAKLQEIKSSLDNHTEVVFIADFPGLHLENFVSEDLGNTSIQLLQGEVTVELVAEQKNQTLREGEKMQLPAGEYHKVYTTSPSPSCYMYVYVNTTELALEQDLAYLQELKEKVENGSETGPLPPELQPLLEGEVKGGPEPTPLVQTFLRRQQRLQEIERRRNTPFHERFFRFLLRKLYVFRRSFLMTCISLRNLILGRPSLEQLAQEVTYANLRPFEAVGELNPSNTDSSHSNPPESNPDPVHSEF
UniProt Q86SF2: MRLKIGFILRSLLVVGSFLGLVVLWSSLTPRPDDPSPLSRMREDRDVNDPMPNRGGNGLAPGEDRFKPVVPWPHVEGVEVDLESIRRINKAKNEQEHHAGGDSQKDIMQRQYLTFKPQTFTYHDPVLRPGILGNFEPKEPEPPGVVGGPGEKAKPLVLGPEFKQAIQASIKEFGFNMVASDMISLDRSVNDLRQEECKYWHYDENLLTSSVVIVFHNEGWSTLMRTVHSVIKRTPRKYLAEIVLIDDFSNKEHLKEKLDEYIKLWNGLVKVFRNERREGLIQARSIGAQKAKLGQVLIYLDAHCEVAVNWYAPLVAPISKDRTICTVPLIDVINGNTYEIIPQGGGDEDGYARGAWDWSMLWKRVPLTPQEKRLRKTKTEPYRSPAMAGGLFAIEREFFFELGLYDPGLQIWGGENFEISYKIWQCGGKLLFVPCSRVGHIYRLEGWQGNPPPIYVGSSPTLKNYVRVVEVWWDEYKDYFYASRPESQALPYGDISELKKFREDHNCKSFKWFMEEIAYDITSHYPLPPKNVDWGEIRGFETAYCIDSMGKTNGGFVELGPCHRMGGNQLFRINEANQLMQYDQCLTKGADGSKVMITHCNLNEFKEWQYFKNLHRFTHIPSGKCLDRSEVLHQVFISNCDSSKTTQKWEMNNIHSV
UniProt P11413, whole entry, looked up: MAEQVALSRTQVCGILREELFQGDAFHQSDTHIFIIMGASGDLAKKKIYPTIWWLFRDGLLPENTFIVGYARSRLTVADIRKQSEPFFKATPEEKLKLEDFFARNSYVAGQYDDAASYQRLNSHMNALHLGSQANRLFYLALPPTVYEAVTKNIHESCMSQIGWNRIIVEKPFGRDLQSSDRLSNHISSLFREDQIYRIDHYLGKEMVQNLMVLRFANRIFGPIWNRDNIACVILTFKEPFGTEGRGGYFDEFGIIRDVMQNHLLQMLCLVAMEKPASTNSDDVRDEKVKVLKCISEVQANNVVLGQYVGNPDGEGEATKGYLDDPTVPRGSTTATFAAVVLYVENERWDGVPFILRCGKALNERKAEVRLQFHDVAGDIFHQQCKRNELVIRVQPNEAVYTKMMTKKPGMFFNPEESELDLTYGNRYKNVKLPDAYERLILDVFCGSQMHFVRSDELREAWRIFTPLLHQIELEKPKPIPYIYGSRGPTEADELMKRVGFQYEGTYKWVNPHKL

The other results are listed elsewhere or left out.

Compound in this test: c1cn2cc(-c3ccc4cn[nH]c4c3)nc(Nc3ccc(N4CCOCC4)cc3)c2n1 [entospletinib]
The experiment in a line: log2 fold change, soluble protein after heating vs DMSO (PISA); higher = thermal stabilisation; K562 cells, 10 uM, 30 min; active = over 0.2 and 3.5 SD of the protein, either way, in both replicates (recomputed). In a few lines:
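For each measurement, 10 μM compound was applied for 30 min to K562 cells at 2×10^6 cells/mL. Aliquots were heated for 3 min across 48°C-58°C, pooled, and extracted in PBS with 0.5% NP-40 at 4°C; the supernatant after 21,000xg for 90 min was soluble protein. This was quantified by TMTpro 16plex LC-MS/MS with channel sums equalised, and thermal stability was reported relative to control samples from duplicates, on a log2 fold-change scale.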
As to FUNDC2 (UniProt Q9BWH2), the log2 fold change is inactive: 0.045. As to GALNT5 (UniProt Q7Z7M9), the log2 fold change is inactive: 0.002. Turning to GFPT1 (UniProt Q06210), the log2 fold change is inactive: 0.028. Consider FTL (UniProt P02792), for which the log2 fold change is inactive: -0.096. In the case of GARS1 (UniProt H7C443), the log2 fold change was inactive: 0.096. As for FPGT (UniProt O14772), the figure is inactive: -0.022.

Regarding GALE (UniProt Q14376), the log2 fold change is inactive: -0.016. GGH (UniProt Q92820): the log2 fold change was inactive: 0.028.

On to FTO (UniProt Q9C0B1), for which the log2 fold change is inactive: 0.009. In the case of GALM (UniProt Q96C23), the log2 fold change is inactive: -0.044.

Consider GGT2 isoform 3 (UniProt P36268), for which the log2 fold change was inactive: 0.05. Regarding GATC (UniProt O43716), the log2 fold change is inactive: 0.473. As for GCN1 (UniProt Q92616), the figure is inactive: 0.255; as for FRRS1 (UniProt Q6ZNA5), inactive: -0.052; as for G3BP1 (UniProt Q13283), inactive: 0.163.

Regarding GGCX (UniProt P38435), the log2 fold change was inactive: 0.01. With GALNT7 (UniProt Q86SF2), the log2 fold change was inactive: -0.039.

As for GAA (UniProt P10253), the log2 fold change was inactive: -0.029. Regarding GCFC2 (UniProt P16383), the log2 fold change is inactive: 0.047. On to GCAT isoform 2 (UniProt O75600), for which the log2 fold change was inactive: 0.072. As for FRYL (UniProt O94915), the figure is inactive: 0.036; as for GFM1 (UniProt Q96RP9), inactive: -0.022; as for GDF15 (UniProt Q99988), inactive: -0.064.

Turning to FUBP1 (UniProt Q96AE4), the log2 fold change is inactive: -0.044. Under GGACT (UniProt Q9BVM4) stands inactive: 0.149; under FYCO1 isoform 4 (UniProt Q9BQS8), inactive: -0.024; under GAGE2A (UniProt Q6NT46), inactive: 0.

For the target GAB1 isoform 2 (UniProt Q13480), the log2 fold change is inactive: 0.085. Consider GAMT (UniProt Q14353), for which the log2 fold change is inactive: -0.062. Under G6PD isoform 2 (UniProt P11413) stands inactive: 0.057.
